The other results are listed elsewhere or left out. Shown are side measurements of this screen, not its main read-out; they come without a call. Compounds called inactive in the main read-out are mostly missing here. Potencies come from curve fits of mixed quality, noted in brackets.
Experiment: IkB Signaling
Conditions: ABC-DLBCL IkBa-CBG/CBR dual luciferase ratio (green luciferase fused to IkBa over red control in OCI-Ly3 lymphoma cells), 4 h
Procedure, shortened: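 In this assay, an IκBα–CBG68 fusion accumulates when IKK-driven degradation is blocked; native CBR normalizes for cell number. OCI-Ly3 cells were treated 4 h with compound and doxycycline, then green and red light read after Chroma-Glo addition.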

[1] = measured here: control luc red channel unless noted

In the case of `CCOc1ccc(NC(=O)CC2C(=O)N(c3cccc(C)c3)C(=O)N2Cc2cccnc2)cc1` (stereo not given), the AC50 [1] is reported as 15.8 µM [falling, single point].
For `CCCCc1nn2c(=O)cc(COC(=O)c3ccc(NC(=O)C4CCCCC4)cc3)nc2s1`, the AC50 [1] was 0.00794 µM [falling, full curve, poor fit].
With `Cc1ccc(Cn2c(=O)n(Cc3ccccc3Cl)c(=O)c3ccccc32)cc1` the AC50 [1] was 25.1 µM [falling, single point].
With `COc1cccc(NC(=O)CN(c2ccc(C)cc2)S(=O)(=O)c2c(C)nn(C)c2C)c1` the AC50 [1] was 2 µM [falling, full curve, poor fit].
In the case of `Cc1ccccc1C(=O)Nc1nnc(S(=O)(=O)N2CCCCCC2)s1`, the AC50 [1] is reported as 2 µM [rising, partial curve].
With `Cc1ccc(Cl)cc1N1CCN(C(=O)C2CCN(Cc3nc(-c4cccc(Cl)c4)oc3C)CC2)CC1` the AC50 [1] was 10 µM [falling, partial curve].
In the case of `CCc1nn2c(=O)cc(COC(=O)C(c3ccccc3)c3ccccc3)nc2s1`, the AC50 [1] is reported as 31.6 µM [falling, single point].
For `Cc1cccc(-c2nc(SCC(=O)Nc3ccc4c(c3)OCCO4)c(-c3ccccc3)[nH]2)c1`, the AC50 [1] was 10 µM [falling, partial curve].
With `Cc1cc(C)cc(N(CC(=O)NCc2ccccc2Cl)S(=O)(=O)c2c(C)noc2C)c1` the AC50 [1] was 10 µM [falling, partial curve].
In the case of `O=C(COc1ccccc1)Nc1ccccc1C(=O)OCc1cc(=O)n2nc(C3CC3)sc2n1`, the AC50 [1] is reported as 12.6 µM [falling, partial curve].
In the case of `Cc1c(C(=O)N2CCC(C)CC2)c(S(=O)(=O)N2CCN(c3ccc(Cl)cc3)CC2)c(C)n1C`, the AC50 [1] is reported as 20 µM [falling, single point].
With `Cc1ccc(Cl)cc1N1CCN(C(=O)C2CCN(Cc3nc(-c4ccc(Cl)cc4)oc3C)CC2)CC1` the AC50 [1] was 15.8 µM [falling, partial curve].
With `CC(C)(C)OC(=O)N1CCC(c2c(C(=O)NC3CCCCC3)cnn2-c2cccc(Cl)c2)CC1` the AC50 [1] was 20 µM [falling, partial curve].
With `Cn1nccc1C(=O)NCc1ccc2c(c1)CCN2C(=O)c1ccccc1` the AC50 [1] was 7.94 µM [falling, partial curve].
With `COc1ccc(-c2nc3sc(CCNC(=O)C(=O)Nc4c(C)cccc4C)c(C)n3n2)cc1` the AC50 [1] was 1.58 µM [rising, full curve, poor fit].
For `O=C(Cn1c(=O)oc2cc(S(=O)(=O)NC3CCCC3)ccc21)Nc1ccc(F)c(F)c1`, the AC50 [1] was 12.6 µM [falling, partial curve].
With `O=c1[nH]c(CN2CCN(C/C=C/c3ccccc3)CC2)nc2cc(Cl)ccc12` the AC50 [1] was 15.8 µM [falling, partial curve].
With `COc1ccccc1CNC(=O)c1cnn2c(C)c(Cc3ccc(F)cc3)c(C)nc12` the AC50 [1] was 1.26 µM [falling, full curve, poor fit].
With `COc1cccc(C2CC(=O)Nc3c2c(=O)nc2c(C)cccn32)c1OC` (stereo not given) the AC50 [1] was 6.31 µM [rising, single point].
In the case of `Cc1ccc(-c2nc3cc(Cl)ccc3o2)cc1NC(=O)COc1ccc(F)cc1`, the AC50 [1] is reported as 1 µM [falling, full curve].
With `CN1CCN(C(c2cccc(Br)c2)c2sc3nc(-c4ccco4)nn3c2O)CC1` (stereo not given) the AC50 [1] was 15.8 µM [rising, partial curve].
With `CC(C)Cn1c(N)c(C(=O)COC(=O)C2CCCCC2)c(=O)n(C)c1=O` the AC50 [1] was 15.8 µM [falling, partial curve].
For `CC(C)CNS(=O)(=O)c1ccc(C(=O)Nc2ccc3c(c2)OCCO3)cc1`, the AC50 [1] was 31.6 µM [falling, partial curve].
In the case of `CCOc1ccc(-c2nc(SCC(=O)Nc3ccc4c(c3)OCCO4)c(-c3ccc(F)cc3)[nH]2)cc1`, the AC50 [1] is reported as 1 µM [falling, full curve, poor fit].
In the case of `CCc1cccc(-n2nnc(-c3nc(-c4cccs4)no3)c2N)c1`, the AC50 [1] is reported as 1.26 µM [rising, full curve].
For `COc1cccc(OC)c1C(=O)Nc1cccc(-c2nc3cc(C)cc(C)c3o2)c1`, the AC50 [1] was 10 µM [falling, partial curve].
For `COc1ccc(NC(=O)c2noc3c2CSc2ccccc2-3)cc1Cl`, the AC50 [1] was 25.1 µM [falling, single point].
In the case of `O=C(Cn1nc(Cc2cccnc2)c2ccccc2c1=O)Nc1cccc(C(F)(F)F)c1`, the AC50 [1] is reported as 39.8 µM [falling, single point].
For `Cc1ccc(NC(=O)Cn2c(C)cc(C)c(C#N)c2=O)cc1F`, the AC50 [1] was 39.8 µM [falling, single point].
In the case of `COc1cccc2sc(Nc3nnc(-c4cccs4)o3)nc12`, the AC50 (measured here: IkB-luc green channel) is reported as 39.8 µM [rising, partial curve] and the AC50 (measured here: control luc red channel) is reported as 31.6 µM [falling, partial curve].
With `COc1ccc(-c2nc3ccccc3s2)cc1NC(=O)c1cc2ccccc2o1` the AC50 [1] was 0.398 µM [rising, full curve].
For `Cn1c(CCN2CCCCC2)nc2cc(NS(=O)(=O)c3ccc(Cl)cc3)ccc21`, the AC50 [1] was 15.8 µM [falling, partial curve].
In the case of `Cc1ccc(NC(=O)CCNS(=O)(=O)c2cccc3nsnc23)cc1`, the AC50 [1] is reported as 25.1 µM [falling, partial curve, poor fit].
With `CC1C=CCC2C(=O)N(c3cccc(C(=O)N4CCN(c5ccc(F)cc5)CC4)c3)C(=O)C12` (stereo not given) the AC50 [1] was 25.1 µM [falling, single point].
For `CN(CC(=O)Nc1ccc(F)cc1F)S(=O)(=O)c1ccc(C(=O)N2CCOCC2)s1`, the AC50 [1] was 15.8 µM [falling, partial curve].
With `Cc1ccc2nc(CSc3nnc(NC(=O)COc4ccccc4)s3)cc(=O)n2c1` the AC50 [1] was 2 µM [falling, partial curve].
In the case of `CCOC(=O)c1ccc(NC(=O)c2cc(=O)c3cc(CC)ccc3o2)cc1`, the AC50 [1] is reported as 3.98 µM [rising, full curve].
In the case of `NC(=O)c1c(NC(=O)CSc2nnc(Cc3ccccc3)n2Cc2ccco2)sc2c1CCC2`, the AC50 [1] is reported as 2.51 µM [falling, full curve].
In the case of `COc1cccc(CNC(=O)C(NS(=O)(=O)c2ccc3nc(C)sc3c2)C(C)C)c1` (stereo not given), the AC50 [1] is reported as 15.8 µM [falling, partial curve, poor fit].

Reference: PubChem BioAssay AID445 (National Center for Advancing Translational Sciences (NCATS), 2006)
